Assay results published in PubChem BioAssay AID504834 (National Center for Advancing Translational Sciences (NCATS), 2011).
The whole screen tested about 320,000 compounds, of which about 22,000 (6.9%) were called active. Inconclusive results, whose numbers are uncertain, are shown with a selection of clear calls. The call rests on the fitted dose curve; in most records, active means well fitted inhibition curve with a large enough effect; inconclusive means small, poorly fitted or top-dose-only effect, or another doubt; inactive means no such curve, though single readings can be large or run the other way. Where the call is inconclusive, the potency comes from a doubtful curve fit.

Assay: Primary qHTS for delayed death inhibitors of the malarial parasite plastid, 96 hour incubation
Conditions: P. falciparum luciferase reporter growth; series mostly up to 28.7 µM; activity change, negative = inhibition: at the top concentration
How it was run: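 Cell-based qHTS: luciferase-tagged P. falciparum in erythrocytes (2% hematocrit, 0.05% parasitemia final) incubated with compounds for 96 hours, 37 C, 5% CO2; luciferase detection reagent then added and luminescence measured.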
On the % scale 0 is the no-effect control and ±100 the full control effect; potency means the concentration at half of the fitted maximal effect.

Structure (SMILES) | Potency | activity change, negative = inhibition
O=c1cc(CSc2nnc(NC3CCCCC3)s2)nc2sccn12 | inconclusive: 7.38 µM [inhibitor, partial curve] | 
O=C(Nc1ccc(Cl)cc1)N1CCOC12CCCCC2 |  | inactive: 48.4%
Cc1ccc(C(=O)Nc2ccc(N3CCN(C)CC3)cc2)cc1C | active: 11.7 µM | 
CC1CCC(C(C)C)C(OC(=O)c2ccccc2N)C1 (stereo unspecified) | inconclusive: 7.57 µM [inhibitor, partial curve] | 
C/C(=N/OCO/N=C(/C)c1ccc(F)cc1)c1ccc(F)cc1 | inconclusive: 10.4 µM [inhibitor, single point] | 
O=C(CN(c1cccc(Cl)c1)S(=O)(=O)c1ccc(Cl)cc1)NCc1ccccn1 | inconclusive: 10.4 µM [inhibitor, single point] | 
COC1=CCC2([N+](=O)[O-])CN(CCO)CC1([N+](=O)[O-])C2 (stereo unspecified) | inconclusive: 0.233 µM [inhibitor, full curve, poor fit] | 
COc1ccc(S(=O)(=O)Nc2c(F)cccc2F)cc1 | inconclusive: 7.38 µM [inhibitor, partial curve] | 
CCOc1cc(-c2cn(S(=O)(=O)c3cccc4nsnc34)nc2N)cc(OCC)c1OCC | inconclusive: 18.5 µM [inhibitor, single point] | 
CC1CCCCN1C(=O)Cc1ccc(Cl)cc1 (stereo unspecified) |  | inactive: -16.1%
COC(=O)c1sc(NC(=O)c2ccc(Cn3cc(Cl)cn3)o2)c(C#N)c1C |  | inactive: 22.6%
CC(C)(C)C(=O)Nc1ccc(N2CCCC2)cc1 | inconclusive: 0.0041 µM [inhibitor, full curve, poor fit] | 
COc1ccccc1N(CC(=O)NC1CCCC1)C(=O)CCC(=O)Nc1cc(C)on1 | inconclusive: 11.7 µM [inhibitor, single point] | 
COc1ccc(-c2ccc(SCC(=O)N3c4ccccc4CC3C)nn2)cc1OC (stereo unspecified) | inconclusive: 18.5 µM [inhibitor, single point] | 
O=C(NCCc1ccccc1)C1CCN(S(=O)(=O)c2cccc3nsnc23)CC1 | inconclusive: 20.8 µM [inhibitor, partial curve, poor fit] | 
Cc1ccc(NC(=O)CSc2nnc3ccccn23)cc1 |  | inactive: 2.7%
C/C(=N\NC(=O)c1cc(-c2cccnc2)nc2ccccc12)c1ccccc1O | inconclusive: 13.1 µM [inhibitor, single point] | 
C#CC1(O)C=CC2C3CCC4=CC(=O)CCC4C3CCC21CC (stereo unspecified) | active: 8.49 µM | 
COc1ccc(C2=NN(C(=O)COc3ncnc4ccccc34)C(c3ccco3)C2)cc1 (stereo unspecified) | inconclusive: 2.33 µM [inhibitor, partial curve, poor fit] | 
Cc1ccccc1-n1ncc2c1CC(C)(C)CC2NC(=O)CN1CCCC1=O (stereo unspecified) |  | inactive: 105%
Cc1ccc(-c2cc(N)n(Cc3ccc(Cl)cc3)n2)cc1 | inconclusive: 0.131 µM [inhibitor, full curve, poor fit] | 
COc1cc(NC(=S)N2CCN(C(=O)c3ccco3)CC2)c(OC)cc1Cl | inconclusive: 10.4 µM [inhibitor, single point] | 
O=C(Nc1nnc(CCN2CCCCC2)s1)c1ccc(Br)cc1 |  | inactive: -21.2%

Another view of part of the listing above:
Structure (SMILES)	Potency	activity change, negative = inhibition
COc1ccc(-c2ccc(SCC(=O)N3c4ccccc4CC3C)nn2)cc1OC (stereo unspecified)	inconclusive: 18.5 µM [inhibitor, single point]	
O=C(NCCc1ccccc1)C1CCN(S(=O)(=O)c2cccc3nsnc23)CC1	inconclusive: 20.8 µM [inhibitor, partial curve, poor fit]	

Next part:

Structure (SMILES) | Potency | activity change, negative = inhibition
C=CCc1cccc(CNc2nc3ccccc3n2C)c1O | inconclusive: 0.208 µM [inhibitor, full curve, poor fit] | 
O=C(COc1cc2oc(=O)c3c(c2cc1Cl)CCC3)N1C[C@H]2C[C@@H](C1)c1cccc(=O)n1C2 | inconclusive: 9.28 µM [inhibitor, partial curve, poor fit] | 
O=C(O)c1ccc(S(=O)(=O)N2CCN(c3ccccn3)CC2)cc1 | inconclusive: 0.465 µM [inhibitor, full curve, poor fit] | 
N#C/C(=C/c1cccn1-c1cccc(C(=O)O)c1)c1ccc(Cl)cc1 | inconclusive: 2.33 µM [inhibitor, partial curve, poor fit] | 
CCN(CC(=O)Nc1ccc2c(c1)OCO2)Cc1nc2ccccc2c(=O)[nH]1 | inconclusive: 7.38 µM [inhibitor, partial curve] | 
COc1cccc(NC(=O)CSc2nnnn2C(C)C)c1 | inconclusive: 0.0586 µM [inhibitor, full curve, poor fit] | 
COC(=O)c1cc(-c2cccc([N+](=O)[O-])c2)c2c(=O)n(C)c(=O)n(C)c2n1 | inconclusive: 11.7 µM [inhibitor, partial curve] | 
Cc1cc(NC(=O)CSCC(=O)Nc2nc3ccc(F)cc3s2)no1 |  | inactive: -28.6%
CCc1ccc(C(=O)/C=C/NCc2ccc(F)cc2)cc1 | inconclusive: 18.5 µM [inhibitor, single point] | 
COC(=O)c1nc(-c2ccccc2)n[nH]1 |  | inactive: 9.26%
N#Cc1ccc(OCC(=O)N/N=C2\CCc3ccccc32)cc1 | inconclusive: 10.4 µM [inhibitor, single point] | 
Oc1ccc(O)c(Cc2nc3ccccc3s2)c1 |  | inactive: -3.52%
O=C(CNC(=O)c1ccc(Cl)cc1)NC1CCCCC1 |  | inactive: 56.9%
Cn1c(Cc2ccccc2)nnc1SCC(=O)NCCc1ccccc1 | inconclusive: 18.5 µM [inhibitor, single point] | 
Cc1ccccc1N1CC(C(=O)Nc2nnc(SCc3cccnc3)s2)CC1=O (stereo unspecified) | inconclusive: 13.1 µM [inhibitor, single point] | 
COc1ccc(Cl)cc1NS(=O)(=O)c1c(C)nc2sccn2c1=O | inconclusive: 16.5 µM [inhibitor, single point] | 
O=C(N/N=C/c1ccc(O)c(O)c1)c1cccc(S(=O)(=O)N2CCCCC2)c1 |  | inactive: -16.7%
COc1ccc(NC(=O)CN(C)C(=O)c2ccc(NS(=O)(=O)c3ccc(F)cc3)cc2)cc1 |  | inactive: 3.69%
CCN1CCC(NC(=O)Nc2ccc(F)cc2F)CC1 |  | inactive: 18.1%
CCCCn1c(CCc2ccccc2)nc2cc3[nH]c(=O)c(C(C)C)nc3cc21 | active: 2.62 µM | 
CCOC(=O)c1oc2ccccc2c1NC(=O)c1ccc2c(c1)OCO2 | active: 13.1 µM | 
O=C(/C=C/c1ccccc1)OCc1cnc(Cl)s1 |  | inactive: 57.8%
COc1ccc(N(CC(=O)Nc2ccccc2C(F)(F)F)C2=NC3CS(=O)(=O)CC3S2)cc1 (stereo unspecified) | inconclusive: 0.131 µM [inhibitor, full curve] | 
